In the supplement of paper PMC10849652:
This is one part of the list.

Protein sequences, listed by entry. Tags and fused reporters are not part of them. Lines headed by an entry give the natural chain unless they say otherwise; changes in a name come on top.
UniProt Q9NR31: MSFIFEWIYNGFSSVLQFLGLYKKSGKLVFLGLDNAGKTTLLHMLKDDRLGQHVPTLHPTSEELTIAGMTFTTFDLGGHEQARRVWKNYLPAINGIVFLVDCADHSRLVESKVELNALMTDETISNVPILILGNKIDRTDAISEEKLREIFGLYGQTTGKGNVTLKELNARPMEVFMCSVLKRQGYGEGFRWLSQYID
UniProt Q5JTH9: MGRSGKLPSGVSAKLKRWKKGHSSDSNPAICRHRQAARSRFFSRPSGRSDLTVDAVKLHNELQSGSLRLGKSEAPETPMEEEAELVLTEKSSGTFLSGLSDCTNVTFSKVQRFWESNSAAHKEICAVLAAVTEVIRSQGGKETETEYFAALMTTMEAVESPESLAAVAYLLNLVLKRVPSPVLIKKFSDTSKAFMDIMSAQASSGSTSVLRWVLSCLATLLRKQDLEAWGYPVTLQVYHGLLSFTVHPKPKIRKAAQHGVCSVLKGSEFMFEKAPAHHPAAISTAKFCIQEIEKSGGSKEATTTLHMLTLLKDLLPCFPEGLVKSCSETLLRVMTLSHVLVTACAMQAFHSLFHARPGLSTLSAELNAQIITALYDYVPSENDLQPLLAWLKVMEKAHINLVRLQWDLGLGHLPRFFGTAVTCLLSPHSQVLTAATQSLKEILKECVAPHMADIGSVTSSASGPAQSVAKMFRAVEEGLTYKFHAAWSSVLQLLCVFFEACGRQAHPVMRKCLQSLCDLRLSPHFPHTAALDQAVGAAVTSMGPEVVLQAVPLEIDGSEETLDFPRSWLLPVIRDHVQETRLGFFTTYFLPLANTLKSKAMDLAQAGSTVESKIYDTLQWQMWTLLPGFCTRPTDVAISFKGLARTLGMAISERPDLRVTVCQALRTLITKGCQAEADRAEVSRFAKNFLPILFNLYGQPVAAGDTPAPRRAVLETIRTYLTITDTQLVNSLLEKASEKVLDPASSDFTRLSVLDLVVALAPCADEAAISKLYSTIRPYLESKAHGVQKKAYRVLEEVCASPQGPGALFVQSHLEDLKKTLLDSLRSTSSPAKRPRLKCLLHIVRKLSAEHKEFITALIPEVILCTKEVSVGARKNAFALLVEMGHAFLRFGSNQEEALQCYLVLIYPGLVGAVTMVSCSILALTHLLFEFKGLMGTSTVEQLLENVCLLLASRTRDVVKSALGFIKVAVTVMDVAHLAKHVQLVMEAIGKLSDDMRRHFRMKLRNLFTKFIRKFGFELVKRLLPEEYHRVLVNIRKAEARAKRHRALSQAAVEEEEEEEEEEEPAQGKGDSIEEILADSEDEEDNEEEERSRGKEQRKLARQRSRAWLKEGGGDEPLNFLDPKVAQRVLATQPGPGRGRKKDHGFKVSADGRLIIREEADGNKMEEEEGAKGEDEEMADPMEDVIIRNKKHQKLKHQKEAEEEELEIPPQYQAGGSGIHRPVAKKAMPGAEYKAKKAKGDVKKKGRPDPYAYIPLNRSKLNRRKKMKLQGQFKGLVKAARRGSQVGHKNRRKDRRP
UniProt Q96IZ7: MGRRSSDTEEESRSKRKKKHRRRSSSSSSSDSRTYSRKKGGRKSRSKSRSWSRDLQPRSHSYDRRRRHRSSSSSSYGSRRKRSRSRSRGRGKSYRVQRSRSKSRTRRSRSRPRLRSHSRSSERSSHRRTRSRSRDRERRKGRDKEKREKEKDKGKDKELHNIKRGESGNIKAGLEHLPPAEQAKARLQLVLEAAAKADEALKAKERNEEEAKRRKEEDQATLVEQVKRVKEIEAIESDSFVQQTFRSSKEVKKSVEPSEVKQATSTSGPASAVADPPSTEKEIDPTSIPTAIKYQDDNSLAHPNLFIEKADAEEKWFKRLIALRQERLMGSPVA
UniProt Q9NX18: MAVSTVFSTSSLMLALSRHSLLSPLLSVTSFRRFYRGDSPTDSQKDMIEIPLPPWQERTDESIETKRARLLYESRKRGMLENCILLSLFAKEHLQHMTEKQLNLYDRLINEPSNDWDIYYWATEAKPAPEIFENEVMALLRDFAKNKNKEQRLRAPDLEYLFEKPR
UniProt Q6IQ49: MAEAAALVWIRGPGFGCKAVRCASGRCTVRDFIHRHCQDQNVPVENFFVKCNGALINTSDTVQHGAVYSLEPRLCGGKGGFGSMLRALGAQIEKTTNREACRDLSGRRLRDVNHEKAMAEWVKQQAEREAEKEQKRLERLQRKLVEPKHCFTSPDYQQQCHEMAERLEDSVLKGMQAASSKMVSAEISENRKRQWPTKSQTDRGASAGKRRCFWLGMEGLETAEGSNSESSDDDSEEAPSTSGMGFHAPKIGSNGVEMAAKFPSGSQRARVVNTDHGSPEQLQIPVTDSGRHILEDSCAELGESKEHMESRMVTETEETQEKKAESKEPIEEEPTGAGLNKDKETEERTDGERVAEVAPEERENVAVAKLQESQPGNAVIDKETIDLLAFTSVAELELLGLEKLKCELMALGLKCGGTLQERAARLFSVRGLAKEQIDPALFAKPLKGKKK
UniProt Q9Y224: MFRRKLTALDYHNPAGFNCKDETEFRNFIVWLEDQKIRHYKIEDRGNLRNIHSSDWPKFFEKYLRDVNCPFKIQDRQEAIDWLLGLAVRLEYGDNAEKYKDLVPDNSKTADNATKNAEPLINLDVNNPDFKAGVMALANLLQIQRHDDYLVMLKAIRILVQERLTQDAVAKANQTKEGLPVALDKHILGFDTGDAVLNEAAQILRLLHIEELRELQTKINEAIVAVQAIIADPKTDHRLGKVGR
UniProt O94855: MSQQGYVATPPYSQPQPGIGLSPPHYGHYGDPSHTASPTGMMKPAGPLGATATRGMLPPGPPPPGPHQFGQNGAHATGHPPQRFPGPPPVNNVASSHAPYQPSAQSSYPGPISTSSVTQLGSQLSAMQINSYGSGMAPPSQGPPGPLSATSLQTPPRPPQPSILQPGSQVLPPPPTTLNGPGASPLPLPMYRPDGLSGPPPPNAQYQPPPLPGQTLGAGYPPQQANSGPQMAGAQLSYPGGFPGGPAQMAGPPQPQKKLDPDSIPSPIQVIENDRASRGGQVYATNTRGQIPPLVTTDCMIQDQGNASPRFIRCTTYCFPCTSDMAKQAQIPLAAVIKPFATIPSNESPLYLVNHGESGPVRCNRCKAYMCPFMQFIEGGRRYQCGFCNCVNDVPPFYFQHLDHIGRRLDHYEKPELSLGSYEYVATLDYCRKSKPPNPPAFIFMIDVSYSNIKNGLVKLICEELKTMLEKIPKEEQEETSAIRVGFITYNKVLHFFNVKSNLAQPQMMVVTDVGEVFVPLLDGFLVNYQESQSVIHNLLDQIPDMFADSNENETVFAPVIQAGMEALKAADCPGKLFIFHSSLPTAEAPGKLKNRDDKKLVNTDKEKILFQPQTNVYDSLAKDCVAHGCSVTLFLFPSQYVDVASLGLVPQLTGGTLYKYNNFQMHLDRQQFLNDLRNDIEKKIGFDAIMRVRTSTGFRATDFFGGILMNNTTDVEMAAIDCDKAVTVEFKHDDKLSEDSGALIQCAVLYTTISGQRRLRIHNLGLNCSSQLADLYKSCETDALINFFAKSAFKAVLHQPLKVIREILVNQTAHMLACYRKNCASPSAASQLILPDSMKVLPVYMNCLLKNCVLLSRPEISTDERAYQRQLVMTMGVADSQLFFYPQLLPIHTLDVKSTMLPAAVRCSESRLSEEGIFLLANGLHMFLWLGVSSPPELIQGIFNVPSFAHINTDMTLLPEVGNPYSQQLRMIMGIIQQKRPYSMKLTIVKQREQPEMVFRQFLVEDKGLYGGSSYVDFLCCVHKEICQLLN
UniProt O00767: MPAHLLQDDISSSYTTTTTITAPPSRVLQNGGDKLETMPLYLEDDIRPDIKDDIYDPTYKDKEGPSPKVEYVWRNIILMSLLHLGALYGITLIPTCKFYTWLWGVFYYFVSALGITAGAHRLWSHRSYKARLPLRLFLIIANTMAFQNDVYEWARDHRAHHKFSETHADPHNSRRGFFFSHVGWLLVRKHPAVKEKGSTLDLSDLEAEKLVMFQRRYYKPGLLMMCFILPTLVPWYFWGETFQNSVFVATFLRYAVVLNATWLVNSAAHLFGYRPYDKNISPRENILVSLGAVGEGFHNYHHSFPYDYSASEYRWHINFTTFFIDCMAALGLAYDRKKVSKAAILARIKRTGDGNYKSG
UniProt Q96ER3: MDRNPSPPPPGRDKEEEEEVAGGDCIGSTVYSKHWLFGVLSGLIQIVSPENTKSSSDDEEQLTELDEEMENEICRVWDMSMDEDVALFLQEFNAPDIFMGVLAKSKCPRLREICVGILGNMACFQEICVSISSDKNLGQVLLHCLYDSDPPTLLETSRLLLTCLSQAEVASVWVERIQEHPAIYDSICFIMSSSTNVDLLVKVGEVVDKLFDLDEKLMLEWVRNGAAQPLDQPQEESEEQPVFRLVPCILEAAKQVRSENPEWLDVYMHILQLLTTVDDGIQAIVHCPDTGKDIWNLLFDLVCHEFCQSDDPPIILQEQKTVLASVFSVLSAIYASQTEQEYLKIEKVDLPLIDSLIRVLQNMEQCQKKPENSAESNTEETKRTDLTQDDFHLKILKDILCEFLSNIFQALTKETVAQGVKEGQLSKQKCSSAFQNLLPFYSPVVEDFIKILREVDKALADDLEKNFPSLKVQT
UniProt O94979: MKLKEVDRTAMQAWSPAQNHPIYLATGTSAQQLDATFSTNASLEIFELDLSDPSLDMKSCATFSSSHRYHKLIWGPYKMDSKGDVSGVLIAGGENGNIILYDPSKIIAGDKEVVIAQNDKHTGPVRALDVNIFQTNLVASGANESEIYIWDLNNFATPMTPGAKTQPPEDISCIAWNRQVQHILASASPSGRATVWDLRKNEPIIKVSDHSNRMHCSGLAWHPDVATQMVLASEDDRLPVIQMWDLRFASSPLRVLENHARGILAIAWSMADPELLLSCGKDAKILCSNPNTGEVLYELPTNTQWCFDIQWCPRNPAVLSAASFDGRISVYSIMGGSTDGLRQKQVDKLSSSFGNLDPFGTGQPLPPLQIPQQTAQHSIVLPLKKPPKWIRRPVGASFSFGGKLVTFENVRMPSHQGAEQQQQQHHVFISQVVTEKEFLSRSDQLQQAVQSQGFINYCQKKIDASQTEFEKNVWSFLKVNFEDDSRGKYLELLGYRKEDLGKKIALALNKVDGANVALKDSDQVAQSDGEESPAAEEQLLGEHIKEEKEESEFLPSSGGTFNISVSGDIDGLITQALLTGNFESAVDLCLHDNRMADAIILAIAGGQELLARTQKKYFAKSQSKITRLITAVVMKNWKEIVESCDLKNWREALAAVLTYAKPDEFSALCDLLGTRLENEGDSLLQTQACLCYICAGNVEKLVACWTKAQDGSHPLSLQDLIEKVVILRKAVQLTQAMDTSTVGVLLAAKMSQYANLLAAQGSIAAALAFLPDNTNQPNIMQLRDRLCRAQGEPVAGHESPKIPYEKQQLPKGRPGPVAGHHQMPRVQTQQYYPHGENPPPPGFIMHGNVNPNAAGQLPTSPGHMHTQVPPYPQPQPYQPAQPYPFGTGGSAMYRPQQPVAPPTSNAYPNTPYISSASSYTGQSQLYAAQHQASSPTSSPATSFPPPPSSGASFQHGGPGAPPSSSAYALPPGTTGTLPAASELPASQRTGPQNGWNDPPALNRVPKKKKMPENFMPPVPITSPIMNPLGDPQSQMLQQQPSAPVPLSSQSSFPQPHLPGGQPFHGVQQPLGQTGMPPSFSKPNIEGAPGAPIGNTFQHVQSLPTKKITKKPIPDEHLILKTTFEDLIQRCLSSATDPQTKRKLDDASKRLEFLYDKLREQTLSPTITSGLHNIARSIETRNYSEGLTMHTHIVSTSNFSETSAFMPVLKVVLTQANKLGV
UniProt Q969E2: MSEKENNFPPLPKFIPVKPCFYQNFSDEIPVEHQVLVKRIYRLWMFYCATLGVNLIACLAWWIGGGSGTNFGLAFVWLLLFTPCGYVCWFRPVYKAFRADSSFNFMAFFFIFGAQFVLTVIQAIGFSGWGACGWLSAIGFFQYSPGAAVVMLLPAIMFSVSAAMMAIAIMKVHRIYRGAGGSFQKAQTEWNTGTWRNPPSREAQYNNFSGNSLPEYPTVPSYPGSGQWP
UniProt Q96DX4: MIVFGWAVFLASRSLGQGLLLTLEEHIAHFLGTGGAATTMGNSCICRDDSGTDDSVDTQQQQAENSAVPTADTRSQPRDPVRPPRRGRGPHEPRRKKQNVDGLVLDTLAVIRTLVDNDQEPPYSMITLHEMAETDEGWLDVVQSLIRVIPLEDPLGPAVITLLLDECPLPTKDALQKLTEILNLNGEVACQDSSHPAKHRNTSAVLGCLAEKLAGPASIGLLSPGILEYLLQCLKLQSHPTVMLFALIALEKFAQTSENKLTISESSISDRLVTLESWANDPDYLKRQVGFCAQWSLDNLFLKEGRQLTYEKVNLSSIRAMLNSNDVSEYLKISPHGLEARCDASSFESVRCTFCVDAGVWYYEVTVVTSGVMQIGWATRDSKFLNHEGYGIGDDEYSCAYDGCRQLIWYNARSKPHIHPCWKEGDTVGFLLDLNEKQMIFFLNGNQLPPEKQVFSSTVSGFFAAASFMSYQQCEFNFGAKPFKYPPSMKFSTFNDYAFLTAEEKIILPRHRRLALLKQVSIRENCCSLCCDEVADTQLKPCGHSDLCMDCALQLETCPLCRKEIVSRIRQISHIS

Assays:
Assay in all cases: log2 fold change, soluble protein after heating vs DMSO (PISA); higher = thermal stabilisation; K562 cells, 10 uM, 30 min; active = over 0.2 and 3.5 SD of the protein, either way, in both replicates (recomputed)
bafetinib = compound: Cc1ccc(NC(=O)c2ccc(CN3CC[C@H](N(C)C)C3)c(C(F)(F)F)c2)cc1Nc1nccc(-c2cncnc2)n1 [bafetinib]
In short: (§1)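 Thermal stability values are relative to control samples and come from duplicates. They are expressed as log2 fold changes. For measurement, K562 cells (2×10^6 cells/mL) received 10 μM compound for 30 min, and aliquots were heated for 3 min over 48°C-58°C, pooled, and extracted at 4°C in PBS with 0.5% NP-40. Soluble protein, the supernatant after 21,000xg for 90 min, was quantified by TMTpro 16plex LC-MS/MS with equalised channel sums.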

[1] = compound: Cc1cccc(CC(=O)N2CCc3c2ccc(-c2cn(C)c4ncnc(N)c24)c3F)n1
In short: as §1

nilotinib = compound: Cc1cn(-c2cc(NC(=O)c3ccc(C)c(Nc4nccc(-c5cccnc5)n4)c3)cc(C(F)(F)F)c2)cn1 [nilotinib]
In short: as §1

[2] = compound: Cc1nc(Nc2n[nH]c3c2CN(C(=O)N[C@H](CN(C)C)c2ccccc2)C3(C)C)c2sccc2n1
In short: as §1

dasatinib = compound: Cc1nc(Nc2ncc(C(=O)Nc3c(C)cccc3Cl)s2)cc(N2CCN(CCO)CC2)n1 [dasatinib]
In short: as §1

[3] = compound: Cc1ncc(-c2ccnc(Nc3ccc(S(C)(=O)=O)cc3)n2)n1C(C)C
In short: as §1

[4] = compound: Cn1cc(-c2ccc3c(c2)CCN3C(=O)Cc2cccc(C(F)(F)F)c2)c2c(N)ncnc21
In short: as §1

[5] = compound: Cn1cc(-c2ccc3nnc(C(F)(F)c4ccc5ncccc5c4)n3n2)cn1
In short: as §1

tipifarnib = compound: Cn1cncc1[C@@](N)(c1ccc(Cl)cc1)c1ccc2c(c1)c(-c1cccc(Cl)c1)cc(=O)n2C [tipifarnib]
In short: as §1

mubritinib = compound: FC(F)(F)c1ccc(/C=C/c2nc(COc3ccc(CCCCn4ccnn4)cc3)co2)cc1 [mubritinib]
In short: as §1

[6] = compound: NC(=O)Nc1cc(-c2cccc(F)c2)sc1C(=O)N[C@H]1CCCNC1
In short: as §1

[7] = compound: NC(=O)c1cnc(N[C@@H]2CCCC[C@@H]2N)nc1Nc1cccc(-n2nccn2)c1
In short: as §1

[8] = compound: NC1(c2ccc(-c3nc4ccn5c(=O)[nH]nc5c4cc3-c3ccccc3)cc2)CCC1
In short: as §1

[9] = compound: NCC(=O)Nc1ccc(-n2nc(C(F)(F)F)cc2-c2ccc3c(ccc4ccccc43)c2)cc1
In short: as §1

entinostat = compound: Nc1ccccc1NC(=O)c1ccc(CNC(=O)OCc2cccnc2)cc1 [entinostat]
In short: as §1

vorinostat = compound: O=C(CCCCCCC(=O)Nc1ccccc1)NO [vorinostat]
In short: as §1

citarinostat = compound: O=C(CCCCCCNC(=O)c1cnc(N(c2ccccc2)c2ccccc2Cl)nc1)NO [citarinostat]
In short: as §1

silmitasertib = compound: O=C(O)c1ccc2c(c1)nc(Nc1cccc(Cl)c1)c1ccncc12 [silmitasertib]
In short: as §1

[10] = compound: O=C1NC(=O)C(c2cnc3ccccn23)=C1c1cn2c3c(cc(F)cc13)CN(C(=O)N1CCCCC1)CC2
In short: as §1

[11] = compound: c1cc(OCCN2CCCCC2)cc(-c2n[nH]c3ccc(-c4nnc[nH]4)cc23)c1
In short: as §1

Measured: log2 fold change

SAR1A (UniProt Q9NR31)
inactive: bafetinib 0.045 | [1] 0.009 | nilotinib 0.127 | [2] 0.021 | dasatinib 0.005 | [3] 0.112 | [4] 0.011 | [5] -0.035 | tipifarnib -0.107 | mubritinib 0.207 | [6] -0.048 | [7] 0.073 | [8] -0.156 | [9] -0.019 | entinostat 0.012 | vorinostat -0.029 | citarinostat 0.081 | silmitasertib 0.027 | [10] -0.04 | [11] -0.011

RRP12 (UniProt Q5JTH9)
inactive: bafetinib 0.01 | [1] -0.036 | nilotinib -0.082 | [2] 0.088 | dasatinib -0.028 | [3] 0.184 | [4] -0.136 | [5] -0.123 | tipifarnib -0.035 | mubritinib -0.096 | [6] 0.062 | [7] 0.188 | [8] 0.089 | [9] 0.051 | entinostat 0.081 | vorinostat 0.072 | citarinostat -0.064 | silmitasertib 0.121 | [10] 0.119 | [11] 0.216

RSRC1 (UniProt Q96IZ7)
active: [2] -2.01 | silmitasertib -0.275
inactive: bafetinib 0.042 | [1] -0.05 | nilotinib 0.06 | dasatinib 0.028 | [3] -0.024 | [4] 0.003 | [5] -0.021 | tipifarnib 0.038 | mubritinib 0.012 | [6] -0.019 | [7] 0.162 | [8] -0.005 | [9] -0.013 | entinostat -0.04 | vorinostat 0.022 | citarinostat 0.049 | [10] -0.029 | [11] -0.123

SDHAF2 (UniProt Q9NX18)
inactive: bafetinib -0.083 | [1] 0.166 | nilotinib -0.02 | [2] 0.022 | dasatinib 0.057 | [3] -0.007 | [4] 0.056 | [5] 0.017 | tipifarnib 0.007 | mubritinib 0.058 | [6] -0.005 | [7] 0.156 | [8] -0.089 | [9] -0.007 | entinostat -0.04 | vorinostat -0.156 | citarinostat -0.026 | silmitasertib -0.007 | [10] -0.101 | [11] -0.015

SDE2 (UniProt Q6IQ49)
inactive: bafetinib -0.096 | [1] -0.011 | nilotinib -0.071 | [2] 0.018 | dasatinib 0.038 | [3] 0.059 | [4] -0.067 | [5] 0.028 | tipifarnib 0.012 | mubritinib 0.025 | [6] -0.029 | [7] -0.061 | [8] -0.032 | [9] -0.046 | entinostat 0.005 | vorinostat 0.018 | citarinostat 0.077 | silmitasertib 0.014 | [10] -0.062 | [11] 0.048

SCLY (UniProt Q96I15)
inactive: bafetinib -0.006 | [1] 0.014 | nilotinib 0.052 | [2] 0.015 | dasatinib 0.035 | [3] -0.02 | [4] 0.043 | [5] -0.048 | tipifarnib -0.023 | mubritinib -0.008 | [6] 0.058 | [7] -0.01 | [8] 0.045 | [9] 0.013 | entinostat -0.016 | vorinostat -0.041 | citarinostat -0.018 | silmitasertib -0.017 | [10] 0 | [11] 0.167

RTRAF (UniProt Q9Y224)
inactive: bafetinib 0.047 | [1] -0.032 | nilotinib 0.008 | [2] 0.045 | dasatinib 0.005 | [3] -0.011 | [4] -0.087 | [5] 0.005 | tipifarnib 0.03 | mubritinib -0.06 | [6] 0.012 | [7] -0.009 | [8] 0.063 | [9] 0.022 | entinostat -0.028 | vorinostat -0.043 | citarinostat 0.014 | silmitasertib 0.087 | [10] 0.063 | [11] -0.071

SAP30BP (UniProt Q9UHR5)
inactive: bafetinib -0.087 | [1] -0.014 | nilotinib 0.005 | [2] -0.029 | dasatinib 0 | [3] 0.02 | [4] -0.006 | [5] -0.057 | tipifarnib 0 | mubritinib 0.023 | [6] -0.02 | [7] -0.003 | [8] 0.015 | [9] 0.007 | entinostat 0.023 | vorinostat -0.061 | citarinostat 0.02 | silmitasertib 0.032 | [10] -0.055 | [11] -0.079

RTCB (UniProt Q9Y3I0)
inactive: bafetinib -0.153 | [1] 0.014 | nilotinib 0.016 | [2] 0.066 | dasatinib 0.022 | [3] -0.025 | [4] -0.013 | [5] 0.006 | tipifarnib 0.002 | mubritinib 0.012 | [6] 0 | [7] 0.023 | [8] -0.022 | [9] 0.031 | entinostat -0.049 | vorinostat 0.007 | citarinostat -0.012 | silmitasertib -0.003 | [10] 0.066 | [11] -0.007

SEC24D isoform 2 (UniProt O94855)
inactive: bafetinib -0.001 | [1] 0.058 | nilotinib -0.019 | [2] -0.001 | dasatinib -0.062 | [3] -0.036 | [4] 0.054 | [5] -0.041 | tipifarnib -0.011 | mubritinib 0.086 | [6] -0.03 | [7] -0.016 | [8] -0.079 | [9] -0.042 | entinostat 0.007 | vorinostat 0.027 | citarinostat 0.072 | silmitasertib 0.069 | [10] -0.044 | [11] 0.001

SCD (UniProt O00767)
inactive: bafetinib -0.153 | [1] 0.109 | nilotinib -0.063 | [2] -0.007 | dasatinib -0.026 | [3] -0.019 | [4] 0.013 | [5] 0.034 | tipifarnib 0.075 | mubritinib 0.019 | [6] -0.064 | [7] -0.151 | [8] -0.071 | [9] -0.054 | entinostat -0.043 | silmitasertib 0.083 | [10] 0.051 | [11] -0.005
active: vorinostat -0.382 | citarinostat -0.403

SAAL1 (UniProt Q96ER3)
inactive: bafetinib -0.102 | [1] 0.047 | nilotinib -0.042 | [2] 0.161 | dasatinib -0.101 | [3] 0.246 | [4] -0.06 | [5] 0 | tipifarnib -0.053 | mubritinib 0.109 | [6] -0.091 | [7] 0.031 | [8] -0.207 | [9] -0.058 | entinostat 0.04 | vorinostat 0.006 | citarinostat 0.011 | silmitasertib 0.119 | [10] -0.04 | [11] -0.013

SEC31A (UniProt O94979)
inactive: bafetinib 0.011 | [1] 0.019 | nilotinib -0.11 | [2] -0.042 | dasatinib -0.134 | [3] 0.054 | [4] -0.031 | [5] -0.057 | tipifarnib -0.065 | mubritinib 0.079 | [6] -0.078 | [7] -0.024 | [8] -0.022 | [9] -0.099 | entinostat 0.041 | vorinostat 0.003 | citarinostat 0.042 | silmitasertib 0.063 | [10] -0.048 | [11] 0.07

SCP2 (UniProt P22307)
inactive: bafetinib -0.016 | [1] -0.001 | nilotinib 0.046 | [2] 0.026 | dasatinib 0.022 | [3] -0.027 | [4] 0.061 | [5] 0.014 | tipifarnib 0.004 | mubritinib 0.035 | [6] -0.048 | [7] -0.02 | [8] -0.022 | [9] -0.007 | entinostat -0.019 | vorinostat -0.009 | citarinostat 0.06 | silmitasertib -0.043 | [10] 0.028 | [11] 0.004

Copied from the results shown (two entries):
RTCB (UniProt Q9Y3I0)
inactive: bafetinib -0.153 | [1] 0.014 | nilotinib 0.016 | [2] 0.066 | dasatinib 0.022 | [3] -0.025 | [4] -0.013 | [5] 0.006 | tipifarnib 0.002 | mubritinib 0.012 | [6] 0 | [7] 0.023 | [8] -0.022 | [9] 0.031 | entinostat -0.049 | vorinostat 0.007 | citarinostat -0.012 | silmitasertib -0.003 | [10] 0.066 | [11] -0.007

SEC24D isoform 2 (UniProt O94855)
inactive: bafetinib -0.001 | [1] 0.058 | nilotinib -0.019 | [2] -0.001 | dasatinib -0.062 | [3] -0.036 | [4] 0.054 | [5] -0.041 | tipifarnib -0.011 | mubritinib 0.086 | [6] -0.03 | [7] -0.016 | [8] -0.079 | [9] -0.042 | entinostat 0.007 | vorinostat 0.027 | citarinostat 0.072 | silmitasertib 0.069 | [10] -0.044 | [11] 0.001

Following part.

SCAMP4 (UniProt Q969E2)
inactive: bafetinib -0.076 | [1] 0.102 | nilotinib 0.039 | [2] 0.004 | dasatinib -0.06 | [3] -0.003 | [4] 0.085 | [5] -0.054 | tipifarnib 0.003 | mubritinib 0.173 | [6] -0.101 | [7] 0.041 | [8] 0.004 | [9] 0.014 | entinostat -0.079 | vorinostat -0.078 | citarinostat -0.047 | silmitasertib -0.024 | [10] -0.039 | [11] 0

RSPRY1 (UniProt Q96DX4)
inactive: bafetinib 0.052 | [1] -0.05 | nilotinib 0.012 | [2] -0.037 | dasatinib -0.036 | [3] 0.01 | [4] 0.007 | [5] -0.049 | tipifarnib 0.093 | mubritinib -0.039 | [6] -0.054 | [7] 0.051 | [8] -0.104 | [9] 0.061 | entinostat -0.016 | vorinostat -0.02 | citarinostat -0.075 | silmitasertib 0.028 | [10] -0.072 | [11] -0.008
